Source: article PMC9371321
No constants are given. Whether binding was seen depends on the method and setting. In cells and extracts the contact can be indirect. Some entries that bind do so weakly or less than the wild type. Sequences can lack the tags named with a protein.

T1: glutathione-S-transferase-labeled Arc (UniProt Q9WV31)
T1 sequence: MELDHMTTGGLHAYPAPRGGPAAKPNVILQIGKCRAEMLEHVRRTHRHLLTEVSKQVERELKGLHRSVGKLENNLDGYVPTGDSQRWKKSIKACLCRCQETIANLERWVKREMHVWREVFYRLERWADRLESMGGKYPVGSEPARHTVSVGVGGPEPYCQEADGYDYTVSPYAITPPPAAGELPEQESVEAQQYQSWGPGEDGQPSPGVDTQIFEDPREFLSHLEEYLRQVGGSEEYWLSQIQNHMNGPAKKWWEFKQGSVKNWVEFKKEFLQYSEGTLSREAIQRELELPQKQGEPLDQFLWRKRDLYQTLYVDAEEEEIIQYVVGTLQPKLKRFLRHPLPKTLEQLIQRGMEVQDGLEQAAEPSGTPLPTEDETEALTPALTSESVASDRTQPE

T2: Arc-mCherry (UniProt Q9WV31)
T2 sequence: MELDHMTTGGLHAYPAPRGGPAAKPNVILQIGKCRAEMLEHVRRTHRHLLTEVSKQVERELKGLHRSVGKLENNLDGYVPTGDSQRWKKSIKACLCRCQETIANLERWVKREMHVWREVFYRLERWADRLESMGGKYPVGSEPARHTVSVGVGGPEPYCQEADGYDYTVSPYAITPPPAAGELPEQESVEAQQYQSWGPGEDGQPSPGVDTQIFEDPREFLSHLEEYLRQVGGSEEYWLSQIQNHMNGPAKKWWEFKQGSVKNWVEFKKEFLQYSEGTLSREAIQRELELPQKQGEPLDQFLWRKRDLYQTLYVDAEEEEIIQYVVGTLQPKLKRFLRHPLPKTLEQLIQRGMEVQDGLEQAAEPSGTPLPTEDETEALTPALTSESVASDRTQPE


Tests used:
[1] = target: T1, glutathione-S-transferase-labeled Arc; assay: pull-down; GST-Arc or GST alone (10 μM) bound to glutathione resin, incubated overnight with HeLa cell lysate expressing CaMKv-Myc-DDK; eluted with glutathione; blots with anti-DDK and anti-GST; only the target purified
[2] = target: T2, Arc-mCherry; assay: FRET or BRET; FLIM-FRET in living MCF-10A cells at room temperature, 20-24 h after transfection; donor CaMKv-EGFP (two-photon excitation at 880 nm), acceptor Arc-mCherry; phasor plots of donor lifetime

| binding [1] | binding [2] | Binder |
| --- | --- | --- |
| binds | – | Calmodulin kinase-like vesicle-associated-Myc-DDK (protein, UniProt Q3UHL1 1-512, palmitoylation of Cys5 (approximately 7% of input palmitoylated in HeLa cells)) MPFGCVTLGDKKNYNQPSEVTDRYDLGQVIKTEEFCEIFRAKDKTTGKLHTCKKFQKRDGRKVRKAAKNEIGILKMVKHPNILQLVDVFVTRKEYFIFLELATGREVFDWILDQGYYSERDTSNVVRQVLEAVAYLHSLKIVHRNLKLENLVYYNRLKNSKIVISDFHLAKLENGLIKEPCGTPEYLAPEVVGRQRYGRPVDCWAIGVIMYILLSGNPPFYEEVEEDDYENHDKNLFRKILAGDYEFDSPYWDDISQAAKDLVTRLMEVEQDQRITAEEAISHEWISGNAASDKNIKDGVCAQIEKNFARAKWKKAVRVTTLMKRLRAPEQSGTAATQSASDAATPGAAGGAIAAAAAAAAAGGAASASGASATAATEGGAGCAAKSDDIASADRSATPATDGSATPATDGSVTPATDGSITPATDGSVTPATDRSATPATDGRATPATEESTVPATQSSALPAAKAAATPEPAVAQPDSTALEGATGQAPPSSKGEEATGCAQESQRVETS |
| – | binds | wild-type CaMKv-EGFP (protein, UniProt Q3UHL1 1-512) MPFGCVTLGDKKNYNQPSEVTDRYDLGQVIKTEEFCEIFRAKDKTTGKLHTCKKFQKRDGRKVRKAAKNEIGILKMVKHPNILQLVDVFVTRKEYFIFLELATGREVFDWILDQGYYSERDTSNVVRQVLEAVAYLHSLKIVHRNLKLENLVYYNRLKNSKIVISDFHLAKLENGLIKEPCGTPEYLAPEVVGRQRYGRPVDCWAIGVIMYILLSGNPPFYEEVEEDDYENHDKNLFRKILAGDYEFDSPYWDDISQAAKDLVTRLMEVEQDQRITAEEAISHEWISGNAASDKNIKDGVCAQIEKNFARAKWKKAVRVTTLMKRLRAPEQSGTAATQSASDAATPGAAGGAIAAAAAAAAAGGAASASGASATAATEGGAGCAAKSDDIASADRSATPATDGSATPATDGSVTPATDGSITPATDGSVTPATDRSATPATDGRATPATEESTVPATQSSALPAAKAAATPEPAVAQPDSTALEGATGQAPPSSKGEEATGCAQESQRVETS |
| – | binds | C5S-CaMKv-EGFP (protein, UniProt Q3UHL1 1-512) MPFGSVTLGDKKNYNQPSEVTDRYDLGQVIKTEEFCEIFRAKDKTTGKLHTCKKFQKRDGRKVRKAAKNEIGILKMVKHPNILQLVDVFVTRKEYFIFLELATGREVFDWILDQGYYSERDTSNVVRQVLEAVAYLHSLKIVHRNLKLENLVYYNRLKNSKIVISDFHLAKLENGLIKEPCGTPEYLAPEVVGRQRYGRPVDCWAIGVIMYILLSGNPPFYEEVEEDDYENHDKNLFRKILAGDYEFDSPYWDDISQAAKDLVTRLMEVEQDQRITAEEAISHEWISGNAASDKNIKDGVCAQIEKNFARAKWKKAVRVTTLMKRLRAPEQSGTAATQSASDAATPGAAGGAIAAAAAAAAAGGAASASGASATAATEGGAGCAAKSDDIASADRSATPATDGSATPATDGSVTPATDGSITPATDGSVTPATDRSATPATDGRATPATEESTVPATQSSALPAAKAAATPEPAVAQPDSTALEGATGQAPPSSKGEEATGCAQESQRVETS |
